Data on one substance can be found in publication PMC4199495.

Chains of the proteins cited; added tags and fusions are not shown.
UniProt Q9VMJ7: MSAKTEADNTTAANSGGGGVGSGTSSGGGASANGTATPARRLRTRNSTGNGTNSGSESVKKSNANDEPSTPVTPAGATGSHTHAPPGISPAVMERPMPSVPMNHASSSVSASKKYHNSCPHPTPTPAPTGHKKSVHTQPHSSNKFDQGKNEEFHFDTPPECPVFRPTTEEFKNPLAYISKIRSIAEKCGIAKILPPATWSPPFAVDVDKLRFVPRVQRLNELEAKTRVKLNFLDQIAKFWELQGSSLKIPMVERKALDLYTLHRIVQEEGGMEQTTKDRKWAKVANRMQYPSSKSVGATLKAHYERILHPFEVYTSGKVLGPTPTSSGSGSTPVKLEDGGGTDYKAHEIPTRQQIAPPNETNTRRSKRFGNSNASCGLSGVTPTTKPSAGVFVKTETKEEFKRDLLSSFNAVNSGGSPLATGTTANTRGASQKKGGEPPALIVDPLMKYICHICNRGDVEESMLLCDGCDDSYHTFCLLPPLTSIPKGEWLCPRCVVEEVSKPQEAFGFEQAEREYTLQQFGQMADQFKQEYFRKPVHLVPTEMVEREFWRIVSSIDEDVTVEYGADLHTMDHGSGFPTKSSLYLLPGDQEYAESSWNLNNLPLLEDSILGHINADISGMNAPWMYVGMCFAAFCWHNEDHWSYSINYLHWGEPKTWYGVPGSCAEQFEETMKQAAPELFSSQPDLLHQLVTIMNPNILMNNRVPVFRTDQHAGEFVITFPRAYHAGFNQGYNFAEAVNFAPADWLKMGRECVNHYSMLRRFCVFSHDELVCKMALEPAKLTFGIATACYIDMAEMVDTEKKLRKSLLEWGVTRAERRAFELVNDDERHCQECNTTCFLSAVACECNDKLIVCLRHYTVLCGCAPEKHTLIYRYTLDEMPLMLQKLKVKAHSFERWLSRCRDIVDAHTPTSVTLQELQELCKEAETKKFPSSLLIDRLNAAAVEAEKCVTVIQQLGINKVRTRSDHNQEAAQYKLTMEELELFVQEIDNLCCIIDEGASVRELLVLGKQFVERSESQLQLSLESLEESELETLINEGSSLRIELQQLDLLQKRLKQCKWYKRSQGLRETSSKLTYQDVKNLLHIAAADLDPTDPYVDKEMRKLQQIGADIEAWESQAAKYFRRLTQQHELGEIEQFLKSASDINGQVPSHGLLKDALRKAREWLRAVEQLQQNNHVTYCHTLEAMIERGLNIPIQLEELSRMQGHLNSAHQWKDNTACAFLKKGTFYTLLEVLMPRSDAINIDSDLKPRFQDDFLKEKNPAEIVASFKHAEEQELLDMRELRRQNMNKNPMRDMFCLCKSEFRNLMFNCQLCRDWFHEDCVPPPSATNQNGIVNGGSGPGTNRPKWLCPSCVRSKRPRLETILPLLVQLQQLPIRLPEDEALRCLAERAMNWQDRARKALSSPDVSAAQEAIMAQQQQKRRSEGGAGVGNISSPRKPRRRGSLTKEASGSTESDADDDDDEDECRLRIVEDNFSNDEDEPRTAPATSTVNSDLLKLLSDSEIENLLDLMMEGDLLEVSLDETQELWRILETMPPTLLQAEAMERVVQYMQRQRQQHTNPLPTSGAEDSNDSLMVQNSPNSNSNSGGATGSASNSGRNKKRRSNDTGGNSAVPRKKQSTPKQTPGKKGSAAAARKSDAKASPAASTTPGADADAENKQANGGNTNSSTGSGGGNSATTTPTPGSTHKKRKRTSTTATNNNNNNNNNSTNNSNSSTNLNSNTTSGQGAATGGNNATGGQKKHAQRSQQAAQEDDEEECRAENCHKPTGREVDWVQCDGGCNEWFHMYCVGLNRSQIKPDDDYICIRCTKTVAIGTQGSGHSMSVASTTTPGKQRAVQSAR

Results are given in words; binding and its absence hold for the method and conditions named. Binding seen in cells or lysates may run through a third protein. Some results given as binding are weak or reduced against the parent protein; the word gives no strength.

For this experiment, the target named is T1, HDAC4 (endogenous, 3rd instar larval extract) (Drosophila (endogenous in 3rd instar larvae)) (UniProt Q9VYF3).
T1 sequence: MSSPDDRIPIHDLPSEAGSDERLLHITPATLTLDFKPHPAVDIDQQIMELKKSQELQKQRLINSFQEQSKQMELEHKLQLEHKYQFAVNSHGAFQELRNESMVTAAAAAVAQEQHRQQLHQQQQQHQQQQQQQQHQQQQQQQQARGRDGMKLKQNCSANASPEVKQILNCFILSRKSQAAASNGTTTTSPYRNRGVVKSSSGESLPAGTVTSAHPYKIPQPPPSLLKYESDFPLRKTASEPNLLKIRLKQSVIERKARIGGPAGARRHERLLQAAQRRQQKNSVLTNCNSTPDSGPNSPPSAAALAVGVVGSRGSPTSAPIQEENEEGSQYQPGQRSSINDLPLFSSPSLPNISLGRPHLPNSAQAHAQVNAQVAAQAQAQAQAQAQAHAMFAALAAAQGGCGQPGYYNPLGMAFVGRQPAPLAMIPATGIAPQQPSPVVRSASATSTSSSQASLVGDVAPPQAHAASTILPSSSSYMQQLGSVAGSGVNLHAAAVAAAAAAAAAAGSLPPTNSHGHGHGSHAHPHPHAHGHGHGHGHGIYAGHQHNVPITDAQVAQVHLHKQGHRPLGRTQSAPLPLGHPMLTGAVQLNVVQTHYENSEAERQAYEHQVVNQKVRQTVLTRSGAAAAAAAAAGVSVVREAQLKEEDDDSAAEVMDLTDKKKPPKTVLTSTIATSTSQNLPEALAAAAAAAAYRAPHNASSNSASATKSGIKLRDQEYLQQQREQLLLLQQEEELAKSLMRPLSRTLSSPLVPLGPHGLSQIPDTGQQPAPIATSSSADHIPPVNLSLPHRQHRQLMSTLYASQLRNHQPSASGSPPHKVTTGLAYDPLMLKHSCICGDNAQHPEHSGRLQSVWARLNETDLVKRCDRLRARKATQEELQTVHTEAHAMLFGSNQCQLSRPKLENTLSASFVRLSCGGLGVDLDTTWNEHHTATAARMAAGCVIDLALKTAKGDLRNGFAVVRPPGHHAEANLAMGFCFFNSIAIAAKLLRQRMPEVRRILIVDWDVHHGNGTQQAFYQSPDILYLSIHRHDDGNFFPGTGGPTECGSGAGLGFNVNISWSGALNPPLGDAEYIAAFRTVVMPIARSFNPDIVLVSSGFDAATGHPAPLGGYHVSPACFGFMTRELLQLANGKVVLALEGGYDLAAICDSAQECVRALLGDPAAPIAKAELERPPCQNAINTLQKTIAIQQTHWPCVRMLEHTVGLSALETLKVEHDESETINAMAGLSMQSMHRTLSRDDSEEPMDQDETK
Kind of experiment: co-IP; HDAC4 immunoprecipitated from total lysate of 3rd instar larvae, processed as for Foxo; KDM5 detected by Western blot. Background: Immunoblotting shows a protein as a band on a membrane.

For the substance “KDM5 (endogenous, 3rd instar larval extract) (from UniProt Q9VMJ7 1-1838)”, the binding result is “binds”.
